From PubChem BioAssay AID2685 (National Center for Advancing Translational Sciences (NCATS), 2010)
The list shows a part of the results. Further columns of the screen follow, without active or inactive calls. Compounds called inactive in the main read-out are mostly missing here. Words in brackets tell the shape of the fitted curve; partial curves, single points and poor fits give uncertain potencies.

Test: qHTS Assay for Lipid Storage Modulators in Drosophila S3 Cells;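 for cell number change: cells counted by Cell Tracker Red CMTPX staining in the red channel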
Settings: BODIPY lipid droplet fluorescence, 18-24 h; for cell number change: measured here: cell count max response, cells fed with added oleic acid
Outline: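 Laser-scanning cytometry quantifies lipid droplet accumulation (500–530 nm total intensity; droplet/cell object ratio) in oleic acid-fed (400 uM added) Drosophila S3 cells treated with a concentration series. 20 uM Triacsin C defined 100% inhibition.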

[1] = measured here: cell number channel AC50, cells fed with added oleic acid
[2] = measured here: lipid fluorescence (Fed channel) AC50, cells fed with added oleic acid

| Structure (SMILES) | cell number change | AC50 [1] | AC50 [2] |
| --- | --- | --- | --- |
| CCC(NC(C)C)C(O)c1ccc(O)c(O)c1 (stereo not given) | 25.1% | 0.82 µM [rising, full curve, poor fit] | 0.92 µM [rising, full curve, poor fit] |
| CSc1nc(N)nc(SCC(=O)C23CC4CC(CC(C4)C2)C3)c1C#N | -12.7% |  | 23.1 µM [falling, single point] |
| O=C(NCc1n[nH]c(=S)n1-c1cccc(C(F)(F)F)c1)c1ccc(S(=O)(=O)N2CCCC2)cc1 | -46.6% | 16.4 µM [falling, single point] | 20.6 µM [falling, single point] |
| Cc1ccc(S(=O)(=O)N(C)C)cc1NC(=O)COc1cccc(-n2cnnn2)c1 | -3.13% |  | 8.2 µM [falling, partial curve, poor fit] |
| COC(=O)c1ccc(/C=N/NC(=S)NCCN2CCOCC2)cc1 | 56% | 13 µM [rising, single point] |  |
| Cc1cc(S(=O)(=O)Nc2c(NC3CCCCC3)c3ccccc3oc2=O)ccc1F | -24.9% |  | 7.31 µM [falling, partial curve] |
| CCC(Cc1c(I)cc(I)c(N)c1I)C(=O)O (stereo not given) | 21.6% |  | 1.3 µM [rising, full curve, poor fit] |
| Cn1c(=O)cc(OCCCC(=O)Nc2cccnc2)c2ccccc21 | 0.418% | 0.517 µM [rising, full curve] | 0.651 µM [rising, full curve] |
| CC(Sc1nnc(-c2cccnc2)n1-c1ccccc1F)C(=O)N1CCCc2ccccc21 (stereo not given) | 19.5% |  | 0.0517 µM [rising, full curve, poor fit] |
| CCCCc1c(O)nc(SCCN(C)C)n(-c2ccccc2)c1=O | -20.1% | 6.51 µM [rising, partial curve, poor fit] | 6.51 µM [rising, partial curve, poor fit] |
| CCc1c(C)sc(NC(=O)c2cccs2)c1C(N)=O | 11.3% |  | 0.58 µM [rising, single point] |
| CCN(CC(=O)NCc1cccs1)C(=O)c1ccc(-c2cccc(C(F)(F)F)c2)o1 | 5.39% | 1.64 µM [rising, partial curve] |  |
| COc1cc(/C=N/NC(=Nc2ccc(C)cc2)c2nc3ccccc3s2)ccc1O | -84.5% |  | 29.1 µM [falling, single point] |
| Cc1ccc2oc(=S)n(C)c2c1 | 14.2% | 0.0231 µM [rising, full curve, poor fit] |  |
| Cc1nnc(NC(=O)c2cccc(S(=O)(=O)N3CCOCC3)c2)s1 | 8.13% |  | 29.1 µM [rising, single point] |
| O=C(c1cccc(NS(=O)(=O)c2ccccc2)c1)N1CCCCC1 | -60.8% | 23.1 µM [falling, single point] | 29.1 µM [falling, single point] |
| O=C(CN1CCc2ccccc2C1)N1CCN(S(=O)(=O)c2ccccc2)CC1 |  |  | 6.51 µM [falling, single point] |
| COc1ccc(-c2noc(C3CCCN(S(=O)(=O)c4cccc(Cl)c4C)C3)n2)cc1OC (stereo not given) | -28.9% |  | 16.4 µM [falling, single point] |
| COc1cccc2cc(C(=O)c3ccccc3)oc12 | 41.2% | 35.5 µM [rising, single point] | 35.5 µM [rising, partial curve] |

| Structure (SMILES) | cell number change | AC50 [1] | AC50 [2] |
| --- | --- | --- | --- |
| COc1cc([N+](=O)[O-])ccc1NC(=O)Nc1cnccn1 | 30.9% | 12.6 µM [rising, partial curve] |  |
| O=C(CCl)Nc1cc(SCC(O)CO)cc([N+](=O)[O-])c1 (stereo not given) | -14.3% | 5.17 µM [falling, single point] | 29.1 µM [falling, single point] |
| CCn1c(SCC(=O)NCc2ccccc2)nc2c(c1=O)SC(C)C2 (stereo not given) |  | 2.91 µM [rising, single point] | 2.91 µM [rising, single point] |
| Cc1ccc2nc3sc(C(=O)N4CCOCC4)c(N)c3cc2c1 | -7.56% |  | 6.51 µM [falling, single point] |
| COc1ccc(Sc2ccc(/C=C3\C(=O)NN(c4ccccc4)C3=O)o2)cc1 | -6.61% |  | 25.9 µM [falling, partial curve] |
| CCCCN(C)C(=O)Cn1c(=O)oc2cc(S(=O)(=O)N3CC(C)CC(C)C3)ccc21 (stereo not given) | 17.4% |  |  |
| COc1ccc(C(CNc2ncnc3sccc23)N(C)C)cc1OC (stereo not given) | -30.3% | 13 µM [falling, single point] |  |
| Cc1cccc(C(=O)N2CCCN(C(=O)c3cccc(C)c3)CC2)c1 |  | 6.51 µM [rising, single point] | 6.51 µM [rising, single point] |
| CC(C)CN(C(=O)CC1OC(=O)c2ccccc21)c1c(N)n(Cc2ccccc2)c(=O)[nH]c1=O (stereo not given) | 8% |  |  |
| COC(=O)c1c(C)[nH]c(C(=O)NCCc2ccc(S(N)(=O)=O)cc2)c1C | 26.1% |  | 29.1 µM [rising, single point] |
| O=C(NCCN1CCOCC1)C(=O)NCC1OCCN1S(=O)(=O)c1cc(F)ccc1F (stereo not given) |  |  | 1.58 µM [rising, partial curve, poor fit] |
| Cc1ccccc1N1CCN(C2CCCN(C(=O)CCN3CCCO3)C2)CC1 (stereo not given) | 12.9% |  | 2.91 µM [falling, full curve] |
| O=C(Cn1c(=O)oc2cc(S(=O)(=O)N3CCCCCC3)ccc21)NC1CCCCC1 | -2.52% |  | 0.13 µM [rising, full curve, poor fit] |
| CCOC(=O)C1CCN(CC(O)COc2ccc(C(=O)CC)cc2)CC1 (stereo not given) | -9.73% | 0.13 µM [falling, full curve, poor fit] | 6.51 µM [falling, single point] |
| CCc1c(C(=O)NNC(=O)Nc2ccc3c(c2)OCO3)csc1C | 18.2% |  |  |
| Cc1ccc(NC(=O)c2cc3ccccc3o2)cc1 |  |  | 6.51 µM [falling, single point] |
| Cc1ccc(Nc2nc(NCC3CCCO3)nc(N)c2[N+](=O)[O-])cc1 (stereo not given) | 2.56% |  | 5.8 µM [rising, single point] |
| CCc1nc(Nc2ccc(OC)cc2OC)c2oc3ccccc3c2n1 | -47.8% | 16.4 µM [falling, single point] |  |
| CCOc1ncccc1C(=O)Nc1nc(C(C)(C)C)cs1 | -30.1% | 18.4 µM [falling, single point] | 29.1 µM [falling, single point] |

An excerpt from above in order of count of non-hydrogen atoms, high to low.

| Structure (SMILES) | cell number change | AC50 [1] | AC50 [2] |
| --- | --- | --- | --- |
| CCCCN(C)C(=O)Cn1c(=O)oc2cc(S(=O)(=O)N3CC(C)CC(C)C3)ccc21 (stereo not given) | 17.4% |  |  |
| CCOC(=O)C1CCN(CC(O)COc2ccc(C(=O)CC)cc2)CC1 (stereo not given) | -9.73% | 0.13 µM [falling, full curve, poor fit] | 6.51 µM [falling, single point] |
| Cc1ccc(Nc2nc(NCC3CCCO3)nc(N)c2[N+](=O)[O-])cc1 (stereo not given) | 2.56% |  | 5.8 µM [rising, single point] |
| COc1cc([N+](=O)[O-])ccc1NC(=O)Nc1cnccn1 | 30.9% | 12.6 µM [rising, partial curve] |  |

Additional structures

| Structure (SMILES) | cell number change | AC50 [1] | AC50 [2] |
| --- | --- | --- | --- |
| CCC1=NN2C(=N)/C(=C\c3ccc(OCCOc4ccc(NC(C)=O)cc4)cc3)C(=O)N=C2S1 | 28.4% |  |  |
| COc1ccccc1NC(=O)Nc1ccc2c(c1)CCC2 | -12.7% |  | 18.4 µM [falling, single point] |
| CCc1cc2c(=O)[nH]c(N3CCCC3)nc2s1 | 3.81% |  | 32.6 µM [rising, single point] |
| Cc1ccnc(N2CCN(C(=O)CSc3nc4ccccc4nc3N3CCC(C)CC3)CC2)c1 | -31.5% | 29.1 µM [falling, single point] |  |
| CCOC(=O)N1CCN(CCC(=O)c2ccc(Cl)cc2)CC1 | -194% | 29.1 µM [falling, single point] | 29.1 µM [falling, single point] |
| N=C(N)c1ccc(O)cc1 | 0.959% |  | 0.651 µM [falling, single point] |
| COc1ccc(C(CNC(=O)c2ccc(NS(=O)(=O)c3ccc(F)cc3)cc2)N2CCOCC2)cc1 (stereo not given) | -10.7% |  | 7.94 µM [falling, partial curve] |
| N=c1n(CCN2CCCC2)c2ccccc2n1CC(O)c1ccco1 (stereo not given) |  |  | 20.6 µM [falling, partial curve, poor fit] |
| COc1ccc(/C=N/OCC(=O)Nc2ccc3c(c2)OCO3)c(OC)c1 |  | 5.8 µM [rising, single point] |  |
| CC(=O)c1cccc(N(C(=O)c2ccco2)C(C(=O)NC2CCCCC2)c2ccc(C)o2)c1 (stereo not given) | -7.92% |  |  |
| O=C(COC(=O)CCCc1nc2ccccc2s1)NC(=O)NCc1ccco1 | -13.3% |  | 2.91 µM [falling, full curve] |
| CCOC(=O)c1c(C)n(C)c2ccc(OCC(N)=O)cc12 |  |  | 0.206 µM [rising, full curve] |
| Cc1ccc(S(=O)(=O)CC(=O)Nc2sc(C)c(C)c2C(N)=O)cc1 | 62.8% | 0.058 µM [rising, full curve] | 0.326 µM [rising, full curve, poor fit] |
| Cc1cc(Cl)ccc1OCCCC(=O)N1CCOCC1 | 32% | 29.1 µM [rising, single point] | 6.51 µM [rising, partial curve] |
| O=C(NCCN1CCCCCC1)C1CCC(CNS(=O)(=O)c2cccc3cccnc23)CC1 (stereo not given) | -51% | 1.16 µM [falling, full curve] | 18.4 µM [falling, partial curve] |
| CS(=O)(=O)N(CC(=O)Nc1c(F)cccc1F)c1ccc(C23CC4CC(CC(C4)C2)C3)cc1 | -48.2% | 14.6 µM [falling, partial curve, poor fit] | 5.17 µM [falling, full curve, poor fit] |
| CCOC(=O)c1nc(Nc2cc(C)cc(C)c2)c2ccccc2n1 | 16.2% |  | 1.46 µM [rising, full curve, poor fit] |
| CC(=O)c1ccc(NC(=O)C2(S(=O)(=O)c3ccccc3)CC2)cc1 | -28.2% |  |  |
| Cc1ccc(NC(=O)COC(=O)CCCC2=NS(=O)(=O)c3ccccc3N2)cc1C |  |  | 10.3 µM [rising, partial curve, poor fit] |
